Among the data in patent US20220033507A1 are binding values, retold here.

For one experiment, the target named is IL-1R1 Fc fusion protein. The experiment in a line: ELISA of hybridoma supernatants on coated IL-1R1, APO-A1 as negative control. For orientation: ELISA stands for enzyme-linked immunosorbent assay.
Experiment [1] has as its target T1, NLRP3 peptide FUS_746_001 (free, unconjugated).
T1 sequence (peptide): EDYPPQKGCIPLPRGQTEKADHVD
Kind of experiment: ELISA of hybridoma supernatants on coated NLRP3 peptide, APO-A1 as negative control.

Results are given in words; binding and its absence hold for the method and conditions named. Some entries that bind do so weakly or less than the wild type. For some assays here: Where a sequence is shown, tags or fusion partners need not be part of it.

B1: Anti-IL-1R1 monoclonal antibody produced from clone F237 5D1-1A8-2A5 (antibody, V domains shown)
VH: QIQLVQSGPELRKPGETVRISCKASGYPFTTAGLQWVQKMSGKGLKWIGWMNTQSEVPKYAEEFKGRIAFSLETAASTAYLQINNLKTEDTATYFCAKSVYFNWRYFDVWGAGTTVTVSS
VL: DIVMTQSPATLSVTPGDRVSLSCRASQSISDYLSWYQQRSHESPRLIIKYASQSISGIPSRFSGSGSGSDFTLSINSVEPEDVGVYYCQHGHSFPLTFGSGTKLELKR
As for B1, the binding entry in the experiment with IL-1R1 Fc fusion protein is “binds”.

B2: Anti-NLRP3 monoclonal antibody produced from clone F226 7A7-1E1-2D5 (antibody, V domains shown)
VH: EVQLVESGGGLVKPGGSLKLSCAASGFTFSDYYMYWVRQTPEKRLEWVATISDGGTYTYYPDSVKGRFTISRDNAKNNLYLQMNSLKSEDTAMYYCARGWVSTMVKLLSSFPYWGQGTLVTVSA
VL: QAVVTQESALTTSPGETVTLTCRSSTGAVTTSNYANWVQEKPDHLFTGLIGGTNNRAPGVPARFSGSLIGDKAALTITGAQTEDEAIYFCALWYSNYWVFGGGTKLTVLG
As for B2, in experiment [1], the binding result was “binds”.
